According to the supplement of paper PMC7238544:
Where a name gives a salt, the structure may show the parent alone. ± gives the standard deviation of the averaged measurements. The list shows a part of the results. The data scatter; read single values as rough.

Key:
[1] = test system: hAMSC donor 1; assay: Hoechst total cell count ratio vs vehicle control; higher = more cells (less toxicity)
[2] = test system: hAMSC donor 2; assay: as above
[3] = test system: hAMSC donor 2; assay: transgenic luciferase activity (RLU/mg protein) fold change vs vehicle control (ratio); higher = more transgene expression
[4] = test system: hAMSC donor 1; assay: transfection efficiency (EGFP+ cells / Hoechst count) fold change vs vehicle control (ratio); hAMSC are human adipose-derived mesenchymal stem cells given an EGFP-luciferase plasmid by lipofection; higher = enhanced transfection
[5] = test system: hAMSC donor 2; assay: as above
[6] = priming compound concentration 0.2 µM
[7] = priming compound concentration 1.7 µM
[8] = priming compound concentration 13 µM

| SMILES | Hoechst total cell count ratio [1, 6] | Hoechst total cell count ratio [1, 7] | Hoechst total cell count ratio [1, 8] | Hoechst total cell count ratio [2, 6] | Hoechst total cell count ratio [2, 7] | Hoechst total cell count ratio [2, 8] | transgenic luciferase activity [3, 8] | transfection efficiency [4, 6] | transfection efficiency [4, 7] | transfection efficiency [4, 8] | transfection efficiency [5, 6] | transfection efficiency [5, 7] | transfection efficiency [5, 8] | transgenic luciferase activity [3, 7] |
| --- | --- | --- | --- | --- | --- | --- | --- | --- | --- | --- | --- | --- | --- | --- |
| CCN1CCC[C@H]1CNC(=O)c1c(O)c(Cl)cc(Cl)c1OC [Raclopride] | 1.15 ± 0.087 | 1.28 ± 0.035 | 1.12 ± 0.22 | 1.18 ± 0.24 | 1.1 ± 0.0043 | 0.931 ± 0.1 | 1.15 ± 0.23 | 0.913 ± 0.16 | 0.938 ± 0.21 | 0.819 ± 0.41 | 1.04 ± 0.11 | 0.979 ± 0.083 | 1.03 ± 0.16 | – |
| O=C1N[C@H](C(=O)O)CS1 [Procysteine] | 1.46 ± 0.1 | 1.07 ± 0.2 | 1.15 ± 0.079 | 1.28 ± 0.17 | 1.17 ± 0.13 | 1.06 ± 0.062 | 0.67 ± 0.18 | 0.925 ± 0.041 | 1.22 ± 0.43 | 1.12 ± 0.2 | 0.929 ± 0.2 | 1.29 ± 0.15 | 1.01 ± 0.17 | – |
| CNCC[C@H](Oc1cccc2ccccc12)c1cccs1 [Duloxetine hydrochloride] | 1.12 ± 0.21 | 1.05 ± 0.12 | 1.3 ± 0.16 | 0.993 ± 0.04 | 1.17 ± 0.065 | 1.01 ± 0.1 | 0.588 ± 0.28 | 0.992 ± 0.35 | 1.53 ± 0.25 | 0.827 ± 0.16 | 1.17 ± 0.089 | 1.09 ± 0.031 | 0.703 ± 0.1 | – |
| COC(=O)CCc1ccc(OCC(O)CNC(C)C)cc1 (centres undefined) [Esmolol hydrochloride] | 1.11 ± 0.033 | 1.19 ± 0.29 | 1.19 ± 0.026 | 0.957 ± 0.05 | 1.07 ± 0.062 | 0.961 ± 0.11 | 0.553 ± 0.07 | 1 ± 0.049 | 0.791 ± 0.15 | 1.19 ± 0.068 | 1.26 ± 0.17 | 1.31 ± 0.091 | 1.49 ± 0.11 | – |
| CNCC[C@@H](Oc1ccccc1C)c1ccccc1 [Atomoxetine hydrochloride] | 1.1 ± 0.17 | 1.35 ± 0.043 | 1.18 ± 0.14 | 1.05 ± 0.073 | 1.07 ± 0.022 | 1.07 ± 0.046 | 0.598 ± 0.12 | 1.17 ± 0.2 | 0.722 ± 0.18 | 1.33 ± 0.4 | 1.06 ± 0.11 | 1.01 ± 0.22 | 1.3 ± 0.3 | – |
| COc1c(N2C[C@@H]3CCCN[C@@H]3C2)c(F)cc2c(=O)c(C(=O)O)cn(C3CC3)c12 [Moxifloxacin hydrochloride] | 1.51 ± 0.17 | 1.31 ± 0.014 | 1.47 ± 0.13 | 0.96 ± 0.15 | 0.867 ± 0.021 | 1.08 ± 0.18 | – | 0.875 ± 0.18 | 1.12 ± 0.24 | 0.838 ± 0.12 | 1.03 ± 0.25 | 1.6 ± 0.29 | 1.07 ± 0.12 | 1 ± 0.27 |
| CCS(=O)(=O)CCn1c([N+](=O)[O-])cnc1C [Tinidazole] | 1.45 ± 0.12 | 1.21 ± 0.025 | 1.67 ± 0.21 | 1.38 ± 0.086 | 1.44 ± 0.11 | 0.9863 ± 0.0032 | 0.68 ± 0.033 | 0.799 ± 0.051 | 1.04 ± 0.17 | 0.809 ± 0.34 | 0.847 ± 0.15 | 0.952 ± 0.021 | 0.942 ± 0.075 | – |
| Nc1ccn([C@@H]2CS[C@H](CO)O2)c(=O)n1 [Lamivudine] | 1.12 ± 0.21 | 1.43 ± 0.25 | 1.3 ± 0.15 | 0.986 ± 0.21 | 1 ± 0.083 | 0.842 ± 0.015 | 0.676 ± 0.083 | 1.27 ± 0.52 | 0.913 ± 0.36 | 0.887 ± 0.18 | 1.08 ± 0.015 | 1.16 ± 0.16 | 1.28 ± 0.18 | – |
